No constants are given. Whether binding was seen depends on the method and setting. In cells and extracts the contact can be indirect. Some binding calls cover weakened binding; strength is not graded here.

By UniProt entry, the sequences of proteins in these tests, tags left out.
UniProt P35222: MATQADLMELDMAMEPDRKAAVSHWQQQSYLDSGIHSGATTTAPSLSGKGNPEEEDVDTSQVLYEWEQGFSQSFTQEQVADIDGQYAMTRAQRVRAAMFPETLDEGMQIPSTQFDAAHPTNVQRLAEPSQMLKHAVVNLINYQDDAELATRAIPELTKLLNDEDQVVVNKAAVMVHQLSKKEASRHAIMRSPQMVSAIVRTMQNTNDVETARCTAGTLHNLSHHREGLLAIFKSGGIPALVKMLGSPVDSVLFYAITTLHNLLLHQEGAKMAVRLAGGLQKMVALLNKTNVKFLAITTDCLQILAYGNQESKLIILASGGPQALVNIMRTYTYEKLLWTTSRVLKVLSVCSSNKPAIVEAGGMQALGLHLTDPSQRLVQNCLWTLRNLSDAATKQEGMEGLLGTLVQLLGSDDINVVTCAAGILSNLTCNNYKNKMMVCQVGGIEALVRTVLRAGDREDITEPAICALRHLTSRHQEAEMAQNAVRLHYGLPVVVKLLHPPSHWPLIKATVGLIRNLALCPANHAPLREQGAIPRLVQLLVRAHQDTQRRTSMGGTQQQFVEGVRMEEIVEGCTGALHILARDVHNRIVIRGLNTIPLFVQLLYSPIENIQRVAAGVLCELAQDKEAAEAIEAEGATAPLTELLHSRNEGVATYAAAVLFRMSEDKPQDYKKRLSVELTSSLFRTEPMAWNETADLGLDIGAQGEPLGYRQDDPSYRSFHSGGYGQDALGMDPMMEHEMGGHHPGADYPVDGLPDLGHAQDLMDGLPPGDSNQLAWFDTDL

This assay deals with T1, Adherens junction-associated protein 1 (human (endogenous in T24)) (UniProt Q9UKB5).
T1 sequence: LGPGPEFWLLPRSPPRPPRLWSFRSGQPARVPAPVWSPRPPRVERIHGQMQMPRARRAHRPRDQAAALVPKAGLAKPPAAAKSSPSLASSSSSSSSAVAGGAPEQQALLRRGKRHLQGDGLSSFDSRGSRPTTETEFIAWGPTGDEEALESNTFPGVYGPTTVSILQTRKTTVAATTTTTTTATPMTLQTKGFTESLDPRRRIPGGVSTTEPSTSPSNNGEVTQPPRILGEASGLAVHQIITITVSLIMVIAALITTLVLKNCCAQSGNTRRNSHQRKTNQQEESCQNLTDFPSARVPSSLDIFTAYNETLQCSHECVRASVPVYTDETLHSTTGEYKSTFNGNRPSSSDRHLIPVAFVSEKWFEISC
The assay can be described thus: co-IP; endogenous proteins in T24 cell lysate (CLB buffer: 50 mM Tris pH 8.0, 100 mM NaCl, 1% NP-40, 10% glycerol); 1,000 μg lysate with 1 μg of the indicated antibody 3-4 h at 4°C, Protein A/G beads, five washes with NETN buffer; immunoblot. In general terms: Immunoblotting shows a protein as a band on a membrane.

Regarding β-catenin (from UniProt P35222 1-781), the binding entry was “binds”.

The values are drawn from article PMC7253684.
